Assay results published in patent publication US8685924B2, “Preventives/remedies for stress urinary incontinence and method of screening the same” (Takeda Pharmaceutical Company Limited, priority 2004, dated 2014).
Some entries share one result that the patent states for a list of compounds. At least one structure is not confirmed: it was looked up by name or label, or the drawing left a doubt.

System: urethane-anesthetized female rats
Assay: Leak point pressure by direct compressing of the bladder (Example 4)
Type: in vivo, rat
Details: intravenous administration
Protocol: SD female rats (body weight 180-350 g) were anesthetized with urethane (Wako Pure Chemical Industries, Ltd.), and halothane (Takeda Pharmaceutical Company Limited) anesthesia was added when necessary during operation.
The spinal cord was transected at T8-9 level to eliminate the reflex voiding. The lower abdomen was incised in the median line, a catheter for intravesical pressure measurement (PE-90, Clay Adams) was inserted into the bladder and secured with a ligature, and the intravesical pressure was measured via a pressure transducer. Urine was emptized in advance by bilaterally pressing the bladder with two swabs, and a 0.1% Evans blue (Merck) solution (0.4 mL) was injected into the bladder. The bladder was gradually compressed bilaterally with two swabs, and the intravesical pressure upon saline leakage from the urethral orifice was measured and defined as a leak point pressure. […] Thereafter, the drug was intravenously administered, the leak point pressure was measured again 20 min later, and the value after the drug administration was determined. […] Depending on the experiment, RS-102221 or SB221284 (showing serotonin 5-HT2C receptor antagonist activity) was administered, 5 min later, WAY-161503 or WAY-163909 was administered, leak point pressure was measured 10 min later, and a competitive assay with the action of WAY-161503 or WAY-163909 was performed. […]

O=C1Nc2cc(Cl)c(Cl)cc2N2CCNCC12 (stereo not shown) [WAY-161503]
dose at which significant effects on the leak point pressure were observed: not less than 0.1 mg/kg
